Reference: the supplement of paper PMC5949888
Most values lie at the floor of the assay. Slopes are relative: functional sequences can read slightly below zero.

What follows are substances tested on Saccharomyces cerevisiae PS128 hsf1 delta, HSF1(1-493) fusion (assay: growth estimate (transactivation domain function in HSF1 fusion, heat-shock survival) (a.u. (slope of normalised read count over time)); higher = stronger growth at 37°C, i.e. more transactivation activity). Conditions: library: random library.
Protocol: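 Random 60-nt DNA library encoding peptides of up to 20 aa, fused to the C-terminus of yeast HSF1 residues 1-493 (C-terminal TAD deleted) and expressed from the native HSF1 promoter on a CEN plasmid in hsf1-deleted S. cerevisiae PS128. Cells were selected at 37°C on -trp 5-FOA plates for 0, 2, 4, 6 and 8 days and amplicons were sequenced. Growth estimate is the slope of a robust linear fit of total-sum-normalised read counts (normalised to the first time point) over time, using at least 2 replicates. Sequences are classed functional (TAD activity) above a threshold of -0.13, set from stop-codon control sequences.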

Row | Substance | growth estimate
1 | DPELLVTPCIAASGDMSVAM | < -0.25
2 | DPF | < -0.25
3 | DPGAEGG | < -0.25
4 | DPGTMLVCVTVER | < -0.25
5 | DPKKCYVSPLMLKRQKTSCH | < -0.25
6 | DPPSTRPQ | < -0.25
7 | DPRSSPLT | < -0.25
8 | DPTAKDLSLRHGPT | < -0.25
9 | DPTRRCG | 0.0329
10 | DPTTTFERSVRVARTLANSP | < -0.25
11 | DPWCDKEWAGRGSGYS | < -0.25
12 | DQAALVYCHQGTSLYPVCLC | < -0.25
13 | DQFGENYTAMPLVRGPRN | < -0.25
14 | DQLVTRFMDVAPSTQRIVCG | < -0.25
15 | DQPSRGASEKWSPG | < -0.25
16 | DQRAQAVQYRSESRAEAPTR | < -0.25
17 | DQRKATTEWGKDIEEQFSHP | < -0.25
18 | DQSRFLALGGVRSPHLCHAG | < -0.25
19 | DQSTGRCRAIFTR | < -0.25
20 | DQVDSVPQGGIGLGTVRFHL | < -0.25
21 | DRA | < -0.25
22 | DRACLVRGHCPVNIRLGAVS | < -0.25
23 | DRAPRGHGIEYLFGQCVGST | < -0.25
24 | DRCHTGGHNEVTVVGRRDAQ | < -0.25

Row | Substance | growth estimate
25 | DREIA | -0.246
26 | DREMSLRPLTSIMASVSP | < -0.25
27 | DRFRLPIGFEGP | < -0.25
28 | DRGISWLIKCRQRWAT | < -0.25
29 | DRGSLEWKDGPERRI | < -0.25
30 | DRGTQHWPDSGR | 0.044
31 | DRGVRIGLKRPTYIPFWLAV | < -0.25
32 | DRGYEEPGAAH | < -0.25
33 | DRHILPGERTHWMIWRIPSG | < -0.25
34 | DRHK | < -0.25
35 | DRHPAQRRRTRVVPALWEVG | < -0.25
36 | DRHWWSTSQEVLLHCYLVGL | < -0.25
37 | DRILFHRTPLTRTGVQPLTS | < -0.25
38 | DRKCGLDPTSIATSTLQIVA | < -0.25
39 | DRLLAVTREG | < -0.25
40 | DRLPEWRRDVKLVNWLGGKR | < -0.25
41 | DRLY | < -0.25
42 | DRNPRRVSHSLRSHVCSLSP | < -0.25
43 | DRNQLCFKPNLQ | < -0.25
44 | DRR | < -0.25
45 | DRRDPLRAWEYRRTSETPFG | < -0.25
46 | DRRLAGFYLGIVERKVAAPA | < -0.25
47 | DRRPHNGSGHLRVSE | < -0.25
48 | DRRVLACKGFPPTHSKRISL | < -0.25

Taken from above:
Entry of DQPSRGASEKWSPG under growth estimate: < -0.25
Entry of DRILFHRTPLTRTGVQPLTS under growth estimate: < -0.25

(listing goes on)

Row | Substance | growth estimate
49 | DRSAIRDERSRLYRLVDISG | < -0.25
50 | DRSDLFGASQHGACVHTRRS | < -0.25
51 | DRVLSSLSTELL | -0.248
52 | DRVVQIDQRGPIVQLVLQGP | < -0.25
53 | DRVYHALGVVLESYRKHRVP | < -0.25
54 | DRWPPIVHFDELGDGGYDPQ | < -0.25
55 | DSAGTSASQLALHGDAISDS | < -0.25
56 | DSCRTSVPWPTNQWTVATLK | < -0.25
57 | DSDSSTDGPGALDACLRLTS | < -0.25
58 | DSEAYRSRHQLAAEPD | < -0.25
59 | DSGAGSI | < -0.25
60 | DSGGNLDHGIIGRYEQQSNA | < -0.25
61 | DSGT | 0.0827
62 | DSHRTYWAYTSGSD | < -0.25
63 | DSIKSG | < -0.25
64 | DSKTIEGTARVGGVEA | < -0.25
65 | DSLCFPSYRMLMYDEMKFLR | < -0.25
66 | DSLLI | < -0.25
67 | DSLSTVGASSATS | < -0.25
68 | DSLVLCTQCIELSH | < -0.25
69 | DSLVSW | < -0.25
70 | DSMCRWTV | < -0.25
71 | DSNIVNRFRASRGRAVARVM | < -0.25
72 | DSNRAGTFKSESVSSLLQPR | < -0.25

Row | Substance | growth estimate
73 | DSNSHTSLRGKVQLPAP | < -0.25
74 | DSPLGGL | -0.239
75 | DSPSSSGESVLQRA | < -0.25
76 | DSQLDYWLKFKLRRSRRSQA | -0.24
77 | DSQLSKTLTASVPSMVALAY | < -0.25
78 | DSRF | < -0.25
79 | DSSLGLGIRRLKDPAGQTPA | < -0.25
80 | DSSNQPPFVRADKKQAVTRP | < -0.25
81 | DSTCPDGRTTVNQCAALLLG | < -0.25
82 | DSTSMSR | < -0.25
83 | DSTVQVVWPQFWCMQDRIER | < -0.25
84 | DSVGPTVRVCNRSLRAWSWI | < -0.25
85 | DSVTILVKTEE | < -0.25
86 | DSVVAARGLRGK | < -0.25
87 | DTASWSAGFTGSAGFFKPLG | < -0.25
88 | DTFCRQTYARCSRRPYAIVK | < -0.25
89 | DTFG | < -0.25
90 | DTFLHAGKHGELQAV | < -0.25
91 | DTGELRHVRADGGWHRMDVS | < -0.25
92 | DTGSAEIIYAIACPPDVVAA | < -0.25
93 | DTPLEAATLCDSKAKG | < -0.25
94 | DTSAC | < -0.25
95 | DTSSNASHMHCSGGKAVSKS | < -0.25
